In PubChem BioAssay AID330 (DTP/NCI, 2004):
The list does not hold the whole screen: it gathers tests that were run many times, whatever their T/C, doses with no T/C, and many T/C values between a quarter and a half above the control. Further doses and runs are listed elsewhere. T/C: endpoint of the treated group in % of that of the vehicle group. Some doses have a count of surviving animals in place of a T/C: the source holds a T/C of zero for them, seemingly a mark for toxic or unscored doses. Some survivor counts are full or nearly so, which does not show that the dose was tolerated: the source hardly ever lists a survival T/C far under the control, and the zero likely stands for such cases as well. Counts of survivors are from the toxicity check (mostly the fifth day) where no day follows; animals may have died later. Schedules are NCI's codes, read here as Q, the interval in days (D) or hours (H), X, the number of doses. Some doses were run more than once; the results are listed from low to high. Where survival is the endpoint, this PubChem deposit counts one and a half times the control or more as active, and values a quarter to a half above the control carry no call in these data; other NCI protocols may use other cut-offs. Marks such as (2×) stand for listed records that agree. Some T/C values carry the count of animals alive at the toxicity check (mostly the fifth day); where none is given, no animal had died by that day.

Tested on: P388 leukemia ip, CD2F1 mice, survival T/C
Assay: NCI In Vivo Anticancer Drug Screen. Data for tumor model P388 Leukemia (intraperitoneal) in CD2F1 (CDF1) mice
Details: T/C endpoint: median survival time, higher T/C = longer survival
[1] = dose: 240.0 mg/kg/injection, schedule: Q01DX005 (ip), vehicle: saline with Tween-80
[2] = dose: 200.0 mg/kg/injection, schedule: Q01DX005 (ip), vehicle: saline
[3] = dose: 100.0 mg/kg/injection, schedule: Q01DX009 (ip), vehicle: other
[4] = dose: 50.0 mg/kg/injection, schedule: Q01DX009 (ip), vehicle: saline with Tween-80
[5] = dose: 100.0 mg/kg/injection, schedule: Q01DX009 (ip), vehicle: saline with Tween-80
[6] = dose: 200.0 mg/kg/injection, schedule: Q01DX009 (ip), vehicle: saline with Tween-80
[7] = dose: 200.0 mg/kg/injection, schedule: Q01DX005 (ip), vehicle: Klucel (hydroxypropylcellulose) (HPC)
[8] = dose: 200.0 mg/kg/injection, schedule: Q01DX009 (ip), vehicle: saline
[9] = dose: 50.0 mg/kg/injection, schedule: Q01DX005 (ip), vehicle: Klucel (hydroxypropylcellulose) (HPC)
[10] = dose: 100.0 mg/kg/injection, schedule: Q01DX009 (ip), vehicle: Klucel (hydroxypropylcellulose) (HPC)
[11] = dose: 200.0 mg/kg/injection, schedule: Q01DX009 (ip), vehicle: Klucel (hydroxypropylcellulose) (HPC)
[12] = dose: 100.0 mg/kg/injection, schedule: Q01DX005 (ip), vehicle: saline with Tween-80
[13] = dose: 200.0 mg/kg/injection, schedule: Q01DX005 (ip), vehicle: saline with Tween-80
[14] = dose: 400.0 mg/kg/injection, schedule: Q01DX001 (ip), vehicle: saline with Tween-80
[15] = dose: 50.0 mg/kg/injection, schedule: Q01DX009 (ip), vehicle: Klucel (hydroxypropylcellulose) (HPC)

**Q.** `CC(=O)C(C)(CC#N)C(CC=O)CCC#N` (centres undefined) was tested. Which T/C (dose: 120.0 mg/kg/injection, schedule: Q01DX005 (ip), vehicle: saline with Tween-80) did it give?
**A.** 125 % of control

**Q.** And the T/C [1]?
**A.** 140 % of control

**Q.** How did the survivor count [1] turn out when `COc1ccc(OC)c(/C=C2/C(=O)ON=C2C)c1` was run?
**A.** 4 of 6

**Q.** `CC1=CCCN(C)C1c1ccccc1` (centres undefined) was tested. Which survivor count [2] did it give?
**A.** 0 of 5

**Q.** `O=C(NC(Cc1ccccc1)C(=O)CCl)OCc1ccccc1` (centres undefined) was tested. Which survivor count [3] did it give?
**A.** 2 of 6

**Q.** What about the survivor count (dose: 200.0 mg/kg/injection, schedule: Q01DX009 (ip), vehicle: other) of the same molecule?
**A.** 1 of 6

**Q.** What about the survivor count (dose: 400.0 mg/kg/injection, schedule: Q01DX009 (ip), vehicle: other) of the same molecule?
**A.** 0 of 6

**Q.** Which survivor count [4] does the source give for `CCOC(=O)c1cc2nc3ccccn3c(=O)c2cc1N` here?
**A.** 6 of 6

**Q.** Which T/C [4] does the source give for `Clc1ccccc1C=Nc1ccccc1` here?
**A.** 131 % of control

**Q.** What about the T/C [5] of the same molecule?
**A.** 125 [5 of 6 alive] and 138 % of control

**Q.** What about the survivor count [6] of the same molecule?
**A.** 1 of 6 and 2 of 6

**Q.** With `Cc1[nH]c(=O)[nH]c(=O)c1/C=C/C(=O)NC(CO)CSC(C)C` (centres undefined) as the molecule, how does the survivor count [3] read?
**A.** 6 of 6

**Q.** How did the survivor count [7] turn out when `COc1cc2c(cc1OC)[N+]([O-])=C(c1ccccc1)C2=O` was run?
**A.** 3 of 6

**Q.** Which results are given for `Oc1ccc[nH]c1=S`?
**A.** T/C (dose: 25.0 mg/kg/injection, schedule: Q01DX009 (ip), vehicle: saline): 98, 99, 100, 104 % of control; T/C (dose: 50.0 mg/kg/injection, schedule: Q01DX009 (ip), vehicle: saline): 96, 99, 101 % of control (2×); T/C (dose: 100.0 mg/kg/injection, schedule: Q01DX009 (ip), vehicle: saline): 98, 100, 105, 109 % of control; T/C [8]: 86, 127, 130, 139 % of control; survivor count (dose: 400.0 mg/kg/injection, schedule: Q01DX009 (ip), vehicle: saline): 0 of 6

**Q.** With `S=C=NCCc1ccccc1` as the molecule, how does the T/C (dose: 25.0 mg/kg/injection, schedule: Q01DX009 (ip), vehicle: saline with Tween-80) read?
**A.** 126 % of control

**Q.** And the T/C (dose: 33.0 mg/kg/injection, schedule: Q01DX009 (ip), vehicle: saline with Tween-80)?
**A.** 128 % of control

**Q.** And the T/C [4]?
**A.** 133 % of control

**Q.** And the survivor count (dose: 75.0 mg/kg/injection, schedule: Q01DX009 (ip), vehicle: saline with Tween-80)?
**A.** 6 of 6

**Q.** And the survivor count [5]?
**A.** 2 of 6

**Q.** How did the survivor count (dose: 25.0 mg/kg/injection, schedule: Q01DX005 (ip), vehicle: Klucel (hydroxypropylcellulose) (HPC)) turn out when `CS(=O)(=O)c1nnc(-c2cc[n+]([O-])cc2)s1` was run?
**A.** 2 of 6

**Q.** And the survivor count [9]?
**A.** 0 of 6

**Q.** And the survivor count (dose: 100.0 mg/kg/injection, schedule: Q01DX005 (ip), vehicle: Klucel (hydroxypropylcellulose) (HPC))?
**A.** 0 of 6

**Q.** And the survivor count [7]?
**A.** 0 of 6

**Q.** With `Nc1nc(N)c(-c2ccc(Cl)c(Cl)c2)c(COc2cccc(CNC(=O)c3cccc(S(=O)(=O)F)c3)c2)n1` as the molecule, how does the T/C (dose: 200.0 mg/kg/injection, schedule: Q04DX003 (ip), vehicle: Klucel (hydroxypropylcellulose) (HPC)) read?
**A.** 125 % of control

**Q.** For `Cc1ccc(N)c2ccccc12`, which survivor count [8] is on record?
**A.** 3 of 6

**Q.** How did the survivor count (dose: 200.0 mg/kg/injection, schedule: Q01DX009 (ip), vehicle: saline + Tween-80 + alcohol) turn out when `COC(=O)/C(=C1/OC(=O)C(c2ccc(OC(C)=O)cc2)=C1O)c1ccc(Cl)cc1` was run?
**A.** 2 of 6

**Q.** `CCOC(=O)/C(C=NC1CC(N=C/C(C(=O)OCC)=C(\C)O)CC(N=C/C(C(=O)OCC)=C(\C)O)C1)=C(/C)O` (centres undefined) was tested. Which survivor count [10] did it give?
**A.** 6 of 6

**Q.** What about the survivor count [11] of the same molecule?
**A.** 6 of 6

**Q.** Which survivor count [9] does the source give for `Cc1cc(O)c2c(c1)C(=O)c1c(c(O)cc(O)c1-c1c(O)cc(O)c3c1C(=O)c1cc(C)cc(O)c1C3=O)C2=O` here?
**A.** 6 of 6

**Q.** For `CC1CC(C(=O)c2ccoc2)C(=O)O1` (centres undefined), which survivor count [12] is on record?
**A.** 2 of 6

**Q.** And the survivor count [13]?
**A.** 0 of 6

**Q.** How did the survivor count [14] turn out when `COc1cc(C)c(/C(=N/O)n2nnc(-c3ccc(C)cc3)n2)c(C)c1` was run?
**A.** 6 of 6

**Q.** For `N#CC12C3C4C5C3C1C(C42)n1c(=O)n(-c2ccccc2)c(=O)n15` (centres undefined), which T/C [15] is on record?
**A.** 147 % of control

**Q.** Which results are given for `CCCCN=NN(C)CCCC`?
**A.** T/C (dose: 50.0 mg/kg/injection, schedule: Q01DX005 (ip), vehicle: saline with Tween-80): 134 and 144 % of control; survivor count [12]: 4 of 5 and 5 of 6; survivor count [13]: 2 of 6

**Q.** Which T/C (dose: 100.0 mg/kg/injection, schedule: Q01DX005 (ip), vehicle: water) does the source give for `CC(C)NC(=O)OCc1c(COC(=O)NC(C)C)c(-c2ccc(Cl)c(Cl)c2)n2c1C[C@@H](OC(=O)CCC(=O)O)C2` (tested in a mixture with another compound) here?
**A.** 125 and 128 % of control

**Q.** And the survivor count (dose: 200.0 mg/kg/injection, schedule: Q01DX005 (ip), vehicle: water)?
**A.** 0 of 6 and 3 of 6

**Q.** What about the survivor count (dose: 400.0 mg/kg/injection, schedule: Q04DX002 (ip), vehicle: water) of the same molecule?
**A.** 0 of 6

**Q.** `CC(=O)Oc1c(C)c(OC(C)=O)c2[nH]c(Cl)c(C=O)c2c1OC(C)=O` was tested. Which survivor count (dose: 400.0 mg/kg/injection, schedule: Q01DX001 (ip), vehicle: Klucel (hydroxypropylcellulose) (HPC)) did it give?
**A.** 3 of 6

**Q.** How did the survivor count [5] turn out when `COc1ccc(C2=NC(c3ccccc3)N3C(c4ccccc4)NC(c4ccccc4)C2C3c2ccccc2)cc1` (centres undefined) was run?
**A.** 6 of 6

**Q.** With `COc1cc2c(cc1O)C(=O)CCC(C(=O)O)=C2` as the molecule, how does the survivor count [6] read?
**A.** 6 of 6

**Q.** What about the survivor count (dose: 400.0 mg/kg/injection, schedule: Q01DX009 (ip), vehicle: saline with Tween-80) of the same molecule?
**A.** 6 of 6

**Q.** Which results are given for `CN(C)CCCn1c(=O)nc2n(-c3ccccc3)c3ccccc3nc-2c1=O`?
**A.** survivor count (dose: 12.5 mg/kg/injection, schedule: Q01DX009 (ip), vehicle: Klucel (hydroxypropylcellulose) (HPC)): 5 of 6; survivor count (dose: 25.0 mg/kg/injection, schedule: Q01DX009 (ip), vehicle: Klucel (hydroxypropylcellulose) (HPC)): 6 of 6; T/C [15]: 126 % of control; survivor count [15]: 6 of 6; survivor count [10]: 0 of 6; survivor count [11]: 0 of 6

**Q.** Which T/C [6] does the source give for `Cc1ccc(NC(=O)Oc2ccc(Br)cc2Br)c([N+](=O)[O-])c1` here?
**A.** 126 % of control

**Q.** Which survivor count (dose: 12.5 mg/kg/injection, schedule: Q01DX009 (ip), vehicle: saline with Tween-80) does the source give for `CN(C)c1ccc(/C=C/c2ccncc2)cc1` here?
**A.** 0 of 6

**Q.** For `Cc1ccc(C(=O)NC2c3ccccc3Oc3ccccc32)cc1`, which survivor count [13] is on record?
**A.** 5 of 5

**Q.** For `CN(C)c1ccc(/C=C/c2cc[n+](C)c(/C=C/c3ccc(N(C)C)cc3)c2)cc1`, which survivor count (dose: 3.13 mg/kg/injection, schedule: Q01DX005 (ip), vehicle: saline) is on record?
**A.** 4 of 5

**Q.** What about the survivor count (dose: 6.25 mg/kg/injection, schedule: Q01DX005 (ip), vehicle: saline) of the same molecule?
**A.** 0 of 5

**Q.** And the survivor count (dose: 12.5 mg/kg/injection, schedule: Q01DX005 (ip), vehicle: saline)?
**A.** 0 of 5

**Q.** What about the survivor count (dose: 25.0 mg/kg/injection, schedule: Q01DX005 (ip), vehicle: saline) of the same molecule?
**A.** 0 of 5

**Q.** And the survivor count (dose: 50.0 mg/kg/injection, schedule: Q01DX005 (ip), vehicle: saline)?
**A.** 0 of 5

**Q.** And the survivor count (dose: 100.0 mg/kg/injection, schedule: Q01DX005 (ip), vehicle: saline)?
**A.** 0 of 5

**Q.** And the survivor count [2]?
**A.** 0 of 5

**Q.** For `Cn1c(=O)c2snnc2n(C)c1=O`, which survivor count (dose: 400.0 mg/kg/injection, schedule: Q04DX003 (ip), vehicle: Klucel (hydroxypropylcellulose) (HPC)) is on record?
**A.** 0 of 6

**Q.** For `COC(=O)C1([Se]c2ccccc2)CCN2CCC(OCc3ccccc3[N+](=O)[O-])C21` (centres undefined), which survivor count (dose: 200.0 mg/kg/injection, schedule: Q01DX001 (ip), vehicle: saline with Tween-80) is on record?
**A.** 0 of 6

**Q.** And the survivor count [14]?
**A.** 0 of 6

**Q.** With `CCOC(=O)Nc1nc2ccc(NC(C)=O)cc2s1` as the molecule, how does the survivor count [10] read?
**A.** 6 of 6

**Q.** And the survivor count [11]?
**A.** 6 of 6

**Q.** How did the T/C [15] turn out when `CN1C(=O)NC(C)(c2cccc(N(CCCl)CCCl)c2)C1=O` (centres undefined) was run?
**A.** 131 % of control

**Q.** With `CN(C)S(=O)(=O)c1ccccc1N=C=S` as the molecule, how does the survivor count [6] read?
**A.** 2 of 6

**Q.** How did the T/C [4] turn out when `O=C1NC(=O)C(=Cc2c(Cl)cccc2Cl)C(=O)N1` was run?
**A.** 125 % of control

**Q.** What about the T/C [5] of the same molecule?
**A.** 131 % of control

**Q.** And the survivor count [5]?
**A.** 3 of 6

**Q.** What about the survivor count [6] of the same molecule?
**A.** 0 of 6
